Assay results reported in PubChem BioAssay (EPA / NIEHS).
Inconclusive means that the source gave no clear call. Such entries were picked first, then a sample of the others. Potencies of inconclusive entries are doubtful fits and often do not repeat. Activity calls are given as the source filed them. The calls were made as follows: active = hit-call score of the fitted dose curve at least 0.9, where 1 is the maximum; inconclusive = response in the unintended direction; inactive = score below 0.9.

Experiment: ATG_M_32_TRANS: Attagene TRANS-FACTORIAL HepG2 Assay for M32 Transcription Factor (Internal Marker) (AID 2282984)
Settings: HepG2 Attagene TRANS M32 internal marker reporter
Procedure: ATG_TRANS is a cell-based, multiplexed-readout assay that uses HepG2, a human liver cell line, with measurements taken at 24 hours after chemical dosing in a 24-well plate.ATG_M_32_TRANS is one of 30 assay component(s) measured or calculated from the ATG_TRANS assay. It is designed to make measurements of mRNA induction, a form of inducible reporter, as detected with fluorescence intensity signals by Reverse transcription polymerase chain reaction (RT-PCR) and Capillary electrophoresis technology.Data from the assay component ATG_M_32_TRANS was analyzed into 1 assay endpoint. This assay endpoint, ATG_M_32_TRANS, was analyzed in the positive analysis fitting direction relative to DMSO as the negative control and baseline of activity. Using a type of inducible reporter, measures of mRNA for gain-of-signal activity can be used to understand the background control at the transcription factor-level as they relate to the gene . Furthermore, this assay endpoint can be referred to as a secondary readout, because this assay has produced multiple assay endpoints where this one serves a background control function. To generalize the intended target to other relatable targets, this assay endpoint is annotated to the background measurement intended target family, where the subfamily is internal marker.
Human liver HepG2 cells are transiently transfected with multiple reporter transcription units (MRTUs) in 6-well plates using FuGene 6 reagent (Roche; 3 ml FuGene/1 mg DNA). The MRTU constructs are regulated by a cis-regulating element (promoter). […] A major difference between the CIS and TRANS system is that in CIS activities of endogenous TFs are measured, whereas the TRANS assay evaluates changes in activities of exogenous, chimeric NR-Gal4 proteins. […] At the end of 24 hour incubation, total RNA was isolated using TriZol reagent (Invitrogen). The isolated RNA is then reverse-transcribed using oligo(dT) primer and Mo-MLV reverse transcriptase (Invitrogen) with DNAse I (Ambion) treatment for 30 min. The one-tenth of the produced cDNA was amplified by PCR using Taq DNA polymerase (Invitrogen) and two reporter sequence-specific primers. The PCR products were fluorescently labeled by primer extension with 6-arboxyfluorescein (6-FAM) 5'-labeled reporter sequence-specific primer (2 min at 95 C, 20 s at 68 C and 10 min at 72 C) and these products were digested with 5U of HpaI (New England Biolabs) for 2h at 37 C. The fragments were purified using Qiaquick PCR columns (Qiagen), analyzed on an ABI 3130xL genetic analyzer (Applied Biosystems) with peak positions identified by using a set of X-rhodamine (ROX)-labeled MapMarker1000 molecular weight standards (BioVentures). The raw capillary electrophoresis data was processed using Attagraph software (Attagene).

Structure (SMILES)	AC50	outcome
Cc1ccc(C(C)C)cc1O	–	inactive
c1ccc2cc(Nc3ccc(Nc4ccc5ccccc5c4)cc3)ccc2c1	inconclusive: 100 µM	–
c1ccc2c(c1)ccc1ccccc12	inconclusive: 100 µM	–
CN1CCCC1=O	inconclusive: 100 µM	–
C1=CC2C3C=CC(C3)C2C1 (stereo not given)	inconclusive: 98.5 µM	–
CCOC(=O)C1=NN(c2ccc(Cl)cc2Cl)C(C)(C(=O)OCC)C1 (stereo not given)	–	inactive
C=CC(=O)OCC(CO)(COC(=O)C=C)COC(=O)C=C	inconclusive: 100 µM	–
CCC(CC)CO	–	inactive
O=C(F)C(F)(F)C(F)(F)C(F)(F)C(=O)F	–	inactive
CC[C@H](C)C(=O)O[C@H]1C[C@H](O)C=C2C=C[C@H](C)[C@H](CC[C@@H](O)C[C@@H](O)CC(=O)O)[C@H]21	inconclusive: 19.8 µM	–
CC(C)(c1ccccc1)c1ccc(Nc2ccc(C(C)(C)c3ccccc3)cc2)cc1	inconclusive: 100 µM	–
CNS(=O)(=O)c1cc(C(=O)N2CCC(CCN3C4CCC3CC(n3c(C)nc5ccccc53)C4)(c3cccc(F)c3)CC2)c(Cl)cc1F (stereo not given)	–	inactive
CC1=C(CC=O)C(C)(C)CCC1	–	inactive
CCN(CC)c1ccc(C(=C2C=CC(=[N+](CC)CC)C=C2)c2ccc(S(=O)(=O)O)cc2S(=O)(=O)[O-])cc1	–	inactive
CCc1ccc(C(c2ccc(CC)cc2)C(Cl)Cl)cc1	–	inactive
COc1ccc(OC)c(N=Nc2c(O)ccc3ccccc23)c1	inconclusive: 0.0769 µM	–
CC1(C)C(=O)N(CO)C(=O)N1CO	–	inactive
CCC(C)(CCCC(C)C)OC(C)=O (stereo not given)	–	inactive
N#CCc1ccc(Cl)cc1Cl	–	inactive

Structure (SMILES)	AC50	outcome
CC(C)C[C@H](NC(=O)OCC1c2ccccc2-c2ccccc21)C(=O)O	inconclusive: 100 µM	–
CCCCOCCOC(=O)c1ccccc1C(=O)OCCOCCCC	–	inactive
Cc1ccc(S(=O)(=O)N=C=O)cc1	inconclusive: 0.398 µM	–
CCC(C)C1N=C(C)C(C)S1 (stereo not given)	–	inactive
CC=C(C)C(C)=O	inconclusive: 100 µM	–
O=C(O)CCCCCCCCCCCC(=O)O	inconclusive: 100 µM	–
CN(CCOc1ccc(CC2SC(=O)NC2=O)cc1)c1ccccn1 (stereo not given)	inconclusive: 0.1 µM	inactive
CC(C)(O)c1ccc(CNC(=O)c2cccnc2Oc2ccc(F)cc2)cc1	–	inactive
CCCCOCCO	inconclusive: 0.0102 µM	–
O=C(O)C(F)(F)C(F)(F)OC(F)(F)F	–	inactive
Cc1cc(NC(=O)C(=O)O)cc(C)c1Oc1ccc(O)c2c1CCC2	–	inactive
CC(=O)O	inconclusive: 0.206 µM	–
CCCOCCOCCOCCO	inconclusive: 100 µM	–
CC(=O)OCC=C(C)CCC=C(C)CCC=C(C)C	inconclusive: 33.4 µM	–
CC[C@]12CCCN3CCc4c(n(c5ccccc45)[C@@](O)(C(=O)OC)C1)[C@@H]32	–	inactive
C=CC(=O)OCCC#N	inconclusive: 100 µM	–
COc1ccc(NC(=O)CC(C)=O)cc1	–	inactive
CCCCC(CC)COC(=O)c1ccccc1 (stereo not given)	–	inactive

Molecules above with a cyano group (two):
Structure (SMILES)	AC50	outcome
N#CCc1ccc(Cl)cc1Cl	–	inactive
C=CC(=O)OCCC#N	inconclusive: 100 µM	–
